Assay results: patent US20220029188A1, “REDOX FLOW BATTERY” (IP2IPO Innovations Limited, priority 2018, published 2022)

How the values were obtained:
[1] = Charge/discharge cycle of BQ/hydrogen redox flow battery at different flow rates; conditions: […] BQ in 1 M H2SO4, 60 mA/cm2, hydrogen 100 mL/min
[2] = Charge/discharge cycling and polarization of BQDS/hydrogen RFC
[3] = 200 charge/discharge cycles at 100 mA cm^−2, […] BQDS in 1 M H2SO4

SMILES	Capacity Utilisation ([1]; BQ flow rate 30 mL/min) [%]	Capacity Utilisation ([1]; BQ flow rate 50 mL/min) [%]	Capacity Utilisation ([1]; BQ flow rate 100 mL/min) [%]	average current efficiency [2, 3] [%]	average energy efficiency [2, 3] [%]	energy efficiency ([2]; at 100 mA cm^−2, single charge/discharge cycle) [%]	maximum charge capacity ([2]; cycling at 100 mA cm^−2) [Ah L^−1]	maximum energy density ([2]; cycling at 100 mA cm^−2) [Wh L^−1]
O=C1C=C(S(=O)(=O)O)C=C(S(=O)(=O)O)C1=O [BQ]	58	68	56	–	–	–	–	–
O=S(=O)([O-])c1cc(O)c(O)c(S(=O)(=O)[O-])c1.[Na+].[Na+] [BQDS, 4,5-Dihydroxy-1,3-benzenedisulfonic acid disodium salt monohydrate]	–	–	–	95	61	67	13.98	10.90
